The text below walks through data of PubChem BioAssay AID493014 (National Center for Advancing Translational Sciences (NCATS), 2011).

This is one part of the list. The main result of the screen is listed elsewhere. These columns were measured beside it and carry no call. Compounds called inactive in the main read-out are mostly missing here. Potencies come from curve fits of mixed quality, noted in brackets.

The nature of this assay: qHTS Assay to Find Inhibitors of Chronic Active B-Cell Receptor Signaling. Particulars: ABC-DLBCL IkBa-CBG/CBR reporter, luminescence ratio (green luciferase fused to IkBa over red control in TMD8 lymphoma cells), 4 h; measured here: CBR red luminescence, cell number. In outline:
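Doxycycline induced both beetle luciferases in TMD8 lymphoma cells; IKK-driven degradation limits the IkappaBalpha-fused green signal, while red luminescence normalises for cell number and nonspecific effects. Compounds tested up to 46 uM, 4 hrs.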
Take `COCc1cc(=O)[nH]c(SCCS(=O)(=O)c2ccc(C)cc2)n1`: the AC50 was 5.01 µM [falling, full curve, poor fit]. In the case of `COC(=O)C(NC(C)=O)(Nc1nc2ccc(S(C)(=O)=O)cc2s1)C(F)(F)F` (stereo not drawn) it was 0.00461 µM [rising, full curve, poor fit]. In the case of `CN(C)C=NC(=O)c1cc(C(=O)c2ccc(Cl)cc2Cl)c[nH]1` it was 20 µM [falling, partial curve, poor fit]; in that of `O=C(/C=C/c1ccc(N2CCCCC2)c([N+](=O)[O-])c1)c1ccc(O)cc1`, 7.08 µM [falling, partial curve, poor fit].

In the case of `Oc1ccccc1-c1nc(N2CCCC2)c2ccccc2n1`, the AC50 is 0.651 µM [rising, full curve, poor fit]. In the case of `O=C(NC(=S)Nc1cccc2cccnc12)c1ccccc1` it was 0.224 µM [falling, full curve]; in that of `NC(=O)NOCc1cccc(Cl)c1`, 14.1 µM [rising, partial curve, poor fit].

Consider `CCOc1ccccc1-n1c(CNc2ccc(F)cc2)nnc1SCC(=O)NCc1ccco1`, for which the AC50 is 4.61 µM [falling, full curve].

Take `O=C(NCCc1ccc(F)cc1)Nc1ccccc1`: the AC50 was 22.4 µM [falling, single point]. In the case of `CC1CCN(c2nc3ccc(C(=O)NCCCN4CCCCC4C)cc3s2)CC1` (stereo not drawn), the AC50 was 0.398 µM [falling, full curve, poor fit]. For the molecule `COc1ccc(NC(=O)Nc2ccc(OC)cc2)cc1`, the AC50 was 29.1 µM [rising, single point]. On to `O=C(Nc1nc(N2C(=O)c3ccccc3C2=O)n(-c2ccccc2)n1)c1ccc(F)cc1`, for which the AC50 is 35.5 µM [falling, single point]. In the case of `CC(/C=C/c1ccc2c(c1)OCO2)=N/NC(=O)COc1ccc(C)cc1` it was 2.91 µM [rising, single point]; in that of `CCOC(=O)c1c(NC(=O)CS(=O)(=O)c2ccc(C)cc2)sc2c1CCC(C)C2` (stereo not drawn), 10 µM [rising, partial curve, poor fit]; in that of `O=C(CCCn1c(SCC(=O)c2ccc(O)c(O)c2)nc2ccccc2c1=O)NCC1CCCO1` (stereo not drawn), 25.1 µM [falling, single point].

Consider `COc1cc2c(cc1OC)CN(S(=O)(=O)c1ccc(Cl)nc1)CC2`, for which the concentration at half-maximal activity (AC50) was 29.1 µM [rising, single point]. The same measure for `O=C(CSC1CC(=O)N(CCc2ccccc2)C1=O)Nc1ccc(Cl)cc1` (stereo not drawn): 23.1 µM [falling, single point]; for `Cc1cccc(NC(=O)CSc2nnc(-c3n[nH]c4ccccc34)o2)c1`: 3.66 µM [rising, partial curve, poor fit].
